Source: article PMC2740868
These are yes or no findings as the source states them, for the method shown. In cells and extracts the contact can be indirect. Some results given as binding are weak or reduced against the parent protein; the word gives no strength. For part of these data: Where a sequence is shown, tags or fusion partners need not be part of it.

Protein sequences, listed by entry. Tags and fused reporters are not part of them. Lines headed by an entry give the natural chain unless they say otherwise; changes in a name come on top.
UniProt P84022: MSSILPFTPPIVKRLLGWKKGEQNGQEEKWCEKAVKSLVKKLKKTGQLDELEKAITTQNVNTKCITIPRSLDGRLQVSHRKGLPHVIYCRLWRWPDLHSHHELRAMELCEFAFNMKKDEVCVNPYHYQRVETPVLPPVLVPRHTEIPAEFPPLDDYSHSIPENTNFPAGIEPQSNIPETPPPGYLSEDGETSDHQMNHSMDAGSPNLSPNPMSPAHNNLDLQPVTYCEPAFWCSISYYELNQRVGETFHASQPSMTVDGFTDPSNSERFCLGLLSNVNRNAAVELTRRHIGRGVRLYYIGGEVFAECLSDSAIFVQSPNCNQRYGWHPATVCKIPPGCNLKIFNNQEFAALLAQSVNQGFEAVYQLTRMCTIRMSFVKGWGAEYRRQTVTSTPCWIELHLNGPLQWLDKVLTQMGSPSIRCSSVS

Experiments:
[1] = target: T1, GST-BRCA1 (298–436aa) (human) (UniProt P38398); assay: pull-down; 10 µg bacterially-purified GST-BRCA1 protein fragments with total lysates of HEK293T cells transfected with Flag-Smad3 constructs; only the target purified
T1 sequence: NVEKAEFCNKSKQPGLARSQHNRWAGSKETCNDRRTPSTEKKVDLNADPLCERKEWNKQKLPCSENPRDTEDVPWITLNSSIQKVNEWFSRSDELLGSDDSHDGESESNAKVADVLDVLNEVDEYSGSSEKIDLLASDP

Flag-Smad3 = Flag-Smad3 (UniProt P84022); assay: co-IP; HEK293T cells co-transfected with HA-BRCA1 constructs and Flag-Smad3; total cell lysates, immunoprecipitation and Western blotting with anti-Flag and anti-HA monoclonal antibodies

binding [1]	binding (Flag-Smad3)	Substance
binds		Flag-Smad3 (from UniProt P84022 1-425)
binds		Flag-Smad3C (MH2 domain, from 207 to 426aa) (from UniProt P84022 207-425) (domain or fragment)
	binds	HA-BRCA1 (1–683aa) (from UniProt P38398 1-683) (domain or fragment)
